Measured values from PubChem BioAssay AID2551 (National Center for Advancing Translational Sciences (NCATS), 2010).
The whole screen tested about 310,000 compounds, of which about 17,000 (5.5%) were called active. This list was built around the results that the source calls inconclusive (neither active nor inactive); the mix of calls is not that of the screen. Calls follow the shape of the dose curve; as a rule, active = well fitted inhibition curve with a large enough effect; inconclusive = small, poorly fitted or top-dose-only effect, or effect the other way; inactive = no such curve, though single readings can be large or run the other way. Potencies beside an inconclusive call are fits to weak or partial responses and may not hold up.

Protein sequences, listed by entry. Tags and fused reporters are not part of them. Lines headed by an entry give the natural chain unless they say otherwise; changes in a name come on top.
UniProt P51450: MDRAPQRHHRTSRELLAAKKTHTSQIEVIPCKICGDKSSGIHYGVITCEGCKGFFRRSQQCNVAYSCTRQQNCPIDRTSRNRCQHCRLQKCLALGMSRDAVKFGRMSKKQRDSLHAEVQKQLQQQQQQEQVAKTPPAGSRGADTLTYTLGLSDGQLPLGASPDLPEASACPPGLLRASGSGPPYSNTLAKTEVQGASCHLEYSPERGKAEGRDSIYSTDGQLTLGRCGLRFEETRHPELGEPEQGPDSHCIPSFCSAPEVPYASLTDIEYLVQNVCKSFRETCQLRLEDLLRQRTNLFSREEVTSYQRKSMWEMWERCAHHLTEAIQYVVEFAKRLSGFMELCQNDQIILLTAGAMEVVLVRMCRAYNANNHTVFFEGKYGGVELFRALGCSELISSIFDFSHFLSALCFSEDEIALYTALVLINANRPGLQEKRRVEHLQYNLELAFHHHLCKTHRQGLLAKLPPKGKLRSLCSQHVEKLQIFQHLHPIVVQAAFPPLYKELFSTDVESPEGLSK

Molecular target: Nuclear receptor ROR-gamma (Mus musculus) (UniProt P51450)
Assay: qHTS for inhibitors of ROR gamma transcriptional activity; also: nearly all actives have a fitted effect of over 60% in size
Settings: Drosophila S2 Gal4-RORgamma UAS-luciferase reporter, 20 h; activity change, negative = inhibition: at 53.6 µM (top of the series)
Procedure, shortened: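 In this cell-based reporter format, copper sulfate (700 uM final) drives Gal4–ROR gamma fusion expression from a metallothionein promoter in Drosophila Schneider cells; compounds preincubated 1 hr, reporter read after 20 hr at ambient temperature.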
% is scaled to controls: 0 for no effect and ±100 for the full control effect; potency is read from the fitted curve at half-maximal effect.

| Compound | Potency | activity change, negative = inhibition |
| --- | --- | --- |
| CCOc1ccccc1N(C(=O)Nc1ccc(Cl)cc1)C1=NCCS1 | inconclusive: 0.224 µM [activator, full curve, poor fit] |  |
| CSCC[C@H](NC(=O)OC(C)(C)C)c1nnc(SCC(=O)N(C)C)o1 | inconclusive: 11.2 µM [inhibitor, partial curve] |  |
| CC(C)CN1C(=O)/C(=C/c2cccs2)NC1=S | active: 5.01 µM |  |
| Cc1ccc(-c2nnc(SCC(=O)N/N=C/c3ccccc3C(=O)O)n2-c2ccccc2)cc1 |  | inactive: 6.68% |
| Nc1nc(Nc2ccc(Cl)cc2)nc(NCc2ccco2)c1[N+](=O)[O-] | inconclusive: 11.2 µM [activator, partial curve] |  |
| COc1ccc(/C=N/n2cnnc2)cc1Cn1nc(C)c([N+](=O)[O-])c1C | inconclusive: 3.16 µM [activator, partial curve, poor fit] |  |
| C[C@]12CCC(=O)C=C1CCC1C2C(O)C[C@]2(C)C1CC[C@]2(O)C(=O)COC(=O)CCC(=O)O (stereo partly drawn) |  | inactive: 2.68% |
| COCCOC(=O)/C=C1/NC(=O)CS1 | inconclusive: 17.8 µM [activator, single point] |  |
| Cc1ccccc1OCC(=O)Nc1nc2ccccc2[nH]1 | active: 7.08 µM |  |
| O=C(O)CCCCCCCCc1cn(CC2CCCCC2)nn1 | active: 4.47 µM |  |
| CCCCCCCCOC(=O)c1c(CSC(=N)N)n(C)c2cc(Br)c(OC(C)=O)cc12 | inconclusive: 35.5 µM [inhibitor, single point] |  |
| N#Cc1ccccc1S(=O)(=O)N1CCN(c2cnccn2)CC1 | inconclusive: 25.1 µM [inhibitor, single point] |  |
| Cc1cc(C)n(CC(=O)N2c3ccccc3Sc3ccccc32)n1 | active: 7.08 µM |  |
| COC(=O)c1ccccc1NC(=O)c1ccc2c(c1)OCCCO2 | inconclusive: 1.41 µM [activator, partial curve] |  |
| Cc1cc(C)nc(NS(=O)(=O)c2ccc(N=Cc3c(C)[nH]n(-c4ccccc4)c3=O)cc2)n1 |  | inactive: 3.44% |
| COc1ccc(/C=C2\CC/C(=C\c3ccc(OC)c(OC)c3)C2=O)cc1OC | active: 2.24 µM |  |
| CCCCSCCCNC(=O)c1ccc(CS(=O)(=O)c2ccccc2OC)o1 | inconclusive: 7.08 µM [activator, partial curve] |  |
| CC(C)c1nnc(NC(=O)CCS(=O)(=O)c2nc(-c3cccs3)cc(C(F)(F)F)n2)s1 | active: 1.78 µM |  |
| CCOc1ccc(C(=O)/C=C/c2ccc(SC)cc2)cc1 | inconclusive: 20 µM [inhibitor, single point] |  |
| CCC(C)Oc1cccc(OCCCCN2C(=O)NC(C)(C)C2=O)c1 (stereo not drawn) | inconclusive: 0.562 µM [activator, full curve, poor fit] |  |
| CC(C)=CCCC1(C)C=Cc2c(ccc3c2[nH]c2cc(O)c(C)cc23)O1 (stereo not drawn) | inconclusive: 35.5 µM [inhibitor, single point] |  |
| CCCc1cc(-c2[nH]ncc2-c2ccc3c(c2)OCCCO3)c(O)cc1O | inconclusive: 35.5 µM [inhibitor, single point] |  |
| O=C(Oc1ccccc1)N1CCC2(CC1)CCN(c1ccccc1)CC2 |  | inactive: 44.9% |
| Cn1c(=O)n(C)c2cc([N+](=O)[O-])c(N3CCN(S(=O)(=O)c4ccc(C(C)(C)C)cc4)CC3)cc21 | inconclusive: 20 µM [activator, single point] |  |
| CC(C)(C)c1nnc(NC(=O)Cc2ccccc2[N+](=O)[O-])s1 | inconclusive: 7.94 µM [activator, partial curve] |  |

| Compound | Potency | activity change, negative = inhibition |
| --- | --- | --- |
| CCOC(=O)N1CCN(Cc2nc(-c3ccc(Cl)cc3)no2)CC1 | inconclusive: 31.6 µM [activator, single point] |  |
| COc1ccc(-c2nc(CS(=O)CC(=O)N3CCCC3)c(C)o2)cc1 (stereo not drawn) | inconclusive: 28.2 µM [inhibitor, single point] |  |
| COCCn1cc(C(=S)N2CCCCC2)c2ccccc21 | active: 15.8 µM |  |
| Cc1nnn(C23CC4CC(CC(C(=O)NN)(C4)C2)C3)n1 |  | inactive: -7.33% |
| O=C(O)c1ccccc1SCCS(=O)(=O)c1ccc(Cl)cc1Cl |  | inactive: -2.2% |
| COc1ccc(O/C(=N\S(=O)(=O)c2ccccc2)c2ccccc2)cc1 | inconclusive: 0.0045 µM [inhibitor, full curve, poor fit] |  |
| COC(=O)c1cc(S(=O)(=O)N2CCOCC2)c(Cl)cc1N1CCOCC1 |  | inactive: 10.2% |
| Cc1ccc(-c2csc(N3CCN(c4ccc5nc(-c6ccncc6)n(CCN6CCCCC6)c5c4)CC3)n2)cc1 | inconclusive: 15.8 µM [inhibitor, single point] |  |
| CC(C)(C)c1ccc(OCCNC(=O)c2ncn[nH]2)cc1 | inconclusive: 20 µM [activator, partial curve, poor fit] |  |
| COCCN=C1NN=C(c2ccc(NC(C)=O)cc2)CS1 | inconclusive: 35.5 µM [inhibitor, single point] |  |
| COc1cc(C2C3C(C)N(C)C(=O)N(C)C3N(C)C(=O)N2C)ccc1O (stereo not drawn) | inconclusive: 10 µM [inhibitor, single point] |  |
| CCC(C(=O)NC1CCCCC1)n1c(SCc2ccc(F)cc2)nc2ccncc21 (stereo not drawn) | inconclusive: 17.8 µM [inhibitor, single point] |  |
| CCc1nnc(NC(=O)CCc2ccc(C)o2)s1 | inconclusive: 12.6 µM [activator, partial curve] |  |
| CCCCN(C)Cc1c(O)ccc2c(-c3ccccc3)cc(=O)oc12 |  | inactive: 13.9% |
| CC(CCN1CCN(CCO)CC1)c1ccccc1 (stereo not drawn) | active: 2.82 µM |  |
| CCCn1c(=O)c(C(=O)NCc2ccc3c(c2)OCO3)c(O)c2ccccc21 | active: 12.6 µM |  |
| Cn1c(=O)n(C)c2cc(CN3C(=O)OC(C)(C)C3(C)O)ccc21 (stereo not drawn) | inconclusive: 3.16 µM [activator, single point] |  |
| Fc1cccc(/C=N/Nc2cc(N3CCOCC3)ncn2)c1 |  | inactive: 8.62% |
| CCC1c2ccc(C)n2CCN1C(=O)Nc1ccccc1OC (stereo not drawn) | inconclusive: 12.6 µM [inhibitor, partial curve, poor fit] |  |
| CC1(C)Cc2c(C#N)c(SCC(=O)c3ccccc3)nc(N3CCOCC3)c2CO1 |  | inactive: -2.78% |
| COc1ccc(N=NC2=C(O)CC(C)(C)CC2=O)cc1 |  | inactive: -32.9% |
| CCCC(=O)NC(=S)Nc1sc2c(c1C(N)=O)CCC2 | inconclusive: 8.91 µM [activator, partial curve] |  |
| CCN(CC)CCN(CC(=O)Nc1c(C)cc(C)cc1C)C(=O)c1ccccc1 |  | inactive: -1.09% |
| Cc1cccc(C)c1NC(=S)NC(C)CCc1ccccc1 (stereo not drawn) | active: 2.24 µM |  |
| CCOC(=O)/C(=C\c1ccc([N+](=O)[O-])o1)NC(=O)c1ccccc1 |  | inactive: -44.1% |

Record cards (already shown):
Cc1nnn(C23CC4CC(CC(C(=O)NN)(C4)C2)C3)n1 reads activity change, negative = inhibition: inactive: -7.33%
O=C(O)c1ccccc1SCCS(=O)(=O)c1ccc(Cl)cc1Cl reads activity change, negative = inhibition: inactive: -2.2%
CCOC(=O)N1CCN(Cc2nc(-c3ccc(Cl)cc3)no2)CC1 reads Potency: inconclusive: 31.6 µM [activator, single point]
CCOC(=O)/C(=C\c1ccc([N+](=O)[O-])o1)NC(=O)c1ccccc1 reads activity change, negative = inhibition: inactive: -44.1%

Remaining list, next part

| Compound | Potency | activity change, negative = inhibition |
| --- | --- | --- |
| Cc1ccc(OCc2nc(-c3cccs3)no2)c([N+](=O)[O-])c1 | inconclusive: 31.6 µM [inhibitor, single point] |  |
| Cc1c(NC(=O)c2ccc(N3CCCC3)c([N+](=O)[O-])c2)cccc1-c1nc2ccccc2s1 | inconclusive: 5.01 µM [inhibitor, full curve, poor fit] |  |
| Clc1cccc(C2Nc3cccc4cccc(c34)N2)c1 |  | inactive: -30.5% |
| COCCn1c(C)cc(C(=O)CSc2nnc(C)s2)c1C | active: 0.708 µM |  |
| COc1ccc(-c2cc3ccccc3c(=O)o2)cc1 | inconclusive: 5.62 µM [inhibitor, single point] |  |
| O=C(CCl)NC(=O)NC12CC3CC(CC(C3)C1)C2 | inconclusive: 22.4 µM [inhibitor, single point] |  |
| O=c1[nH]c(Cc2ccccn2)nc2scc(-c3ccccc3Cl)c12 | active: 6.31 µM |  |
| S=C(N=Nc1ccccc1)NNc1ccccc1 | inconclusive: 28.2 µM [inhibitor, single point] |  |
| CCNc1nc(NC(C)C)nc(N(C#N)CCOc2ccccc2)n1 | inconclusive: 22.4 µM [inhibitor, single point] |  |
| C(=C\c1ccccc1)/CSc1nnc(-c2cccnc2)n1Cc1ccco1 | inconclusive: 20 µM [inhibitor, single point] |  |
| COCCn1nnnc1CN(CCc1ccccc1)Cc1cc2ccc(C)cc2[nH]c1=O |  | inactive: -7.47% |
| O=C1N/C(=C/c2ccc(N3CCOCC3)o2)C(=O)N1c1cccc(Cl)c1 | active: 3.55 µM |  |
| Cc1ccc2nc(NC(=O)CNS(=O)(=O)c3ccc(Br)s3)sc2c1 |  | inactive: -30.3% |
| COc1ccc(N2CCN(C(c3cccs3)C(C)NC(=O)C(=O)N3CCCC3)CC2)cc1 (stereo not drawn) |  | inactive: 7.1% |
| O=C(Nc1cnn(Cc2ccc(F)cc2)c1)c1noc2c1CCCC2 | inconclusive: 0.316 µM [activator, partial curve] |  |
| O=C(NCc1ccc2c(c1)OCO2)c1nc(S(=O)(=O)Cc2ccccc2)ncc1Cl | inconclusive: 3.55 µM [inhibitor, single point] |  |
| COc1ccc(CCCc2nnc(SCC(=O)Nc3nccs3)n2C)cc1C | inconclusive: 20 µM [inhibitor, single point] |  |
| Cc1onc(-c2ccccc2)c1C(=O)N/N=C(\N)COc1ccc(Cl)cc1 | active: 1 µM |  |
| CCN(CC)c1ccc(/C=N/Nc2nc(C)cc(C)n2)c(O)c1 | active: 1.78 µM |  |
| CN(C)C(=O)Cn1c(SCC(=O)Nc2ccc3c(c2)OCO3)nc2ccccc21 | inconclusive: 1.41 µM [inhibitor, partial curve] |  |
| CCCn1c(-c2ccc(F)cc2)n[nH]c1=S | inconclusive: 12.6 µM [inhibitor, single point] |  |
| COc1ccc(/C=C(\C#N)C(=O)NCc2ccccc2)cc1 | inconclusive: 11.2 µM [inhibitor, single point] |  |
| Cc1ccc(S(=O)(=O)[N-]c2nc3ccccc3nc2-[n+]2cc(C)cc(C)c2)cc1 |  | inactive: 2.22% |
